Test results reported in article PMC2982801.
Results are given in words; binding and its absence hold for the method and conditions named. In cells and extracts the contact can be indirect. Some binding calls cover weakened binding; strength is not graded here. One block for each molecule: values may come before it.

Sequences of proteins named here, by UniProt entry; tags and fusion partners are left off.
UniProt Q9NQB0: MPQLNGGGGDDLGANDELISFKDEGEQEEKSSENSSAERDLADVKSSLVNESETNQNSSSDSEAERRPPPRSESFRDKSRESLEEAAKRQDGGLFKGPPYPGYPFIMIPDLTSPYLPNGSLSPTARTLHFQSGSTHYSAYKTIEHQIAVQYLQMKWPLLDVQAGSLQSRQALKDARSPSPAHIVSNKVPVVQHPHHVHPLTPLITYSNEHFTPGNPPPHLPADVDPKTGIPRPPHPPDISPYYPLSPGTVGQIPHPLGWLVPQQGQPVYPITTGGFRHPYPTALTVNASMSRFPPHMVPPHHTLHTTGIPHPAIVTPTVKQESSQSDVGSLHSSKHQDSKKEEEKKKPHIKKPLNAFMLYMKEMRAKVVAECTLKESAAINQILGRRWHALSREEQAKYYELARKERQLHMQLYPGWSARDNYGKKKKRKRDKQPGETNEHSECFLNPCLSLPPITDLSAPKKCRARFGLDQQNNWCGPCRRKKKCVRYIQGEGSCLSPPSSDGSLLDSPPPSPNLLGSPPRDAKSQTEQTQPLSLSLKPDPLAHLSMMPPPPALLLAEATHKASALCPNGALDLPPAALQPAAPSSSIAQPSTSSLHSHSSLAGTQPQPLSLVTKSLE
UniProt Q8TEK3: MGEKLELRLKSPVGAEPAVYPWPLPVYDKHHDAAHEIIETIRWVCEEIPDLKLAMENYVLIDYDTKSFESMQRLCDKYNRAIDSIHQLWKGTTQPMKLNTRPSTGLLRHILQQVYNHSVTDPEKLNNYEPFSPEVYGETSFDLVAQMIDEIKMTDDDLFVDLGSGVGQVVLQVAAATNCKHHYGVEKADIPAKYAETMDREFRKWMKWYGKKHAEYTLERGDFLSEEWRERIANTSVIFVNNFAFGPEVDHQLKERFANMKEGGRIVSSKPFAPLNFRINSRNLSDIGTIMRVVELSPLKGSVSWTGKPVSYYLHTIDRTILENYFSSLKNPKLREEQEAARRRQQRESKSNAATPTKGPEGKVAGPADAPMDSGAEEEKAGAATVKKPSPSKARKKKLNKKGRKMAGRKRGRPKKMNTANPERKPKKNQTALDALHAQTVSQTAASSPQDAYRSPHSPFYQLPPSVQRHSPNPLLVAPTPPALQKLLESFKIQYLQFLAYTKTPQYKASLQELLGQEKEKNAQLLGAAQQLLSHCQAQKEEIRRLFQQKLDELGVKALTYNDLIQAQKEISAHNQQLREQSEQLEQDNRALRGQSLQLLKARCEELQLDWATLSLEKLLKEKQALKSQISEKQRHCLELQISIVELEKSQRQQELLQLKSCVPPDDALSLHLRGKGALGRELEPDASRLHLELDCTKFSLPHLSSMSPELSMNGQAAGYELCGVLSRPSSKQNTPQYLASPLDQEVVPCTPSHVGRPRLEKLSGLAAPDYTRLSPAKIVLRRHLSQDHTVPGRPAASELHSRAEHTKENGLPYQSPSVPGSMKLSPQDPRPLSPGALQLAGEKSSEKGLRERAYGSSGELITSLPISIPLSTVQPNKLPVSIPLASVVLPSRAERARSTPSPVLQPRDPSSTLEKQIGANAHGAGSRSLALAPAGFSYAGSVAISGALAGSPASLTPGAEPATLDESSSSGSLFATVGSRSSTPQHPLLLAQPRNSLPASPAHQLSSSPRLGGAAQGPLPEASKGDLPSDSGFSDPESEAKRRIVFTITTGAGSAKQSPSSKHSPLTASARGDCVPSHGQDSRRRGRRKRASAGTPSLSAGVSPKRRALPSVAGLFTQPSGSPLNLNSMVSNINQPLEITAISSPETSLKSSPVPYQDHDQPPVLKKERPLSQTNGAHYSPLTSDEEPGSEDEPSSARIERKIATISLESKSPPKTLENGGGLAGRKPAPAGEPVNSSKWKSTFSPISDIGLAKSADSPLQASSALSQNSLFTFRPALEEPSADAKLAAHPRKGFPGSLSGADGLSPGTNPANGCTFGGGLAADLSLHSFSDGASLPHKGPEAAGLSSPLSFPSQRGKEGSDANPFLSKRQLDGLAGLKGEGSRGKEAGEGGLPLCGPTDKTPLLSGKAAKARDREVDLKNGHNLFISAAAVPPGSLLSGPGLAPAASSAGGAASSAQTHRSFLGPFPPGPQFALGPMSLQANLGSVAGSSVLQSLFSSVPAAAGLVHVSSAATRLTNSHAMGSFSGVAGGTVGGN
UniProt P35222: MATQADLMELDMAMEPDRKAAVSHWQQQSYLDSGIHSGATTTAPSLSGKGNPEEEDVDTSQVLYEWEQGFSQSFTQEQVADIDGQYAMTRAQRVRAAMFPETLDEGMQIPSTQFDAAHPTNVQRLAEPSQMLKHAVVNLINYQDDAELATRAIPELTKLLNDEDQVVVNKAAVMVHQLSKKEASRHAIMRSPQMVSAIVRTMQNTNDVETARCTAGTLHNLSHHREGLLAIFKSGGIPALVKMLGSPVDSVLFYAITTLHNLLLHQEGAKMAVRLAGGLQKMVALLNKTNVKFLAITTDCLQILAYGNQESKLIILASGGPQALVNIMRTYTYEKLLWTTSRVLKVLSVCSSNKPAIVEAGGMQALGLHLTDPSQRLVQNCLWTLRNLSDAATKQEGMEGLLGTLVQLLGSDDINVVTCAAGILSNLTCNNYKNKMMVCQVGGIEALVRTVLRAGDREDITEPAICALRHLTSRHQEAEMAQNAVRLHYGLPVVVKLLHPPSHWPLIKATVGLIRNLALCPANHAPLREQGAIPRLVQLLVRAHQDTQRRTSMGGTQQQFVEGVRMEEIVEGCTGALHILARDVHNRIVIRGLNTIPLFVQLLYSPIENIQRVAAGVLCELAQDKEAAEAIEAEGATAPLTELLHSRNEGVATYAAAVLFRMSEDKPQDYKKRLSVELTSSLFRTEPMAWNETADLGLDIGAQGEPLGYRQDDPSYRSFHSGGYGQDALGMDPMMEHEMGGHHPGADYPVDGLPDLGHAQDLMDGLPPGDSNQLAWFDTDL
UniProt Q924A0: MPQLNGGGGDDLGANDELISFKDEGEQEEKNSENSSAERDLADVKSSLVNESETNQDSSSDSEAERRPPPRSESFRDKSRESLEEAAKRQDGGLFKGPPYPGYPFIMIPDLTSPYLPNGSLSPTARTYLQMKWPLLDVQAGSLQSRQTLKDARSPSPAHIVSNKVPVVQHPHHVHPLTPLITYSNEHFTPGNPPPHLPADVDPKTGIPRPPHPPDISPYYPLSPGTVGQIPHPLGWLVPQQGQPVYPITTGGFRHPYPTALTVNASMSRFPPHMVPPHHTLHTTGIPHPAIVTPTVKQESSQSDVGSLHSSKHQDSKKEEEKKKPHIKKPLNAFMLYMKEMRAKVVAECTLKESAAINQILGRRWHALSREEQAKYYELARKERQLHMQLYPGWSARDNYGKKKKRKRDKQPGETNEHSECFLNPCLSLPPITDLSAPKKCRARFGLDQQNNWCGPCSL
UniProt Q02248: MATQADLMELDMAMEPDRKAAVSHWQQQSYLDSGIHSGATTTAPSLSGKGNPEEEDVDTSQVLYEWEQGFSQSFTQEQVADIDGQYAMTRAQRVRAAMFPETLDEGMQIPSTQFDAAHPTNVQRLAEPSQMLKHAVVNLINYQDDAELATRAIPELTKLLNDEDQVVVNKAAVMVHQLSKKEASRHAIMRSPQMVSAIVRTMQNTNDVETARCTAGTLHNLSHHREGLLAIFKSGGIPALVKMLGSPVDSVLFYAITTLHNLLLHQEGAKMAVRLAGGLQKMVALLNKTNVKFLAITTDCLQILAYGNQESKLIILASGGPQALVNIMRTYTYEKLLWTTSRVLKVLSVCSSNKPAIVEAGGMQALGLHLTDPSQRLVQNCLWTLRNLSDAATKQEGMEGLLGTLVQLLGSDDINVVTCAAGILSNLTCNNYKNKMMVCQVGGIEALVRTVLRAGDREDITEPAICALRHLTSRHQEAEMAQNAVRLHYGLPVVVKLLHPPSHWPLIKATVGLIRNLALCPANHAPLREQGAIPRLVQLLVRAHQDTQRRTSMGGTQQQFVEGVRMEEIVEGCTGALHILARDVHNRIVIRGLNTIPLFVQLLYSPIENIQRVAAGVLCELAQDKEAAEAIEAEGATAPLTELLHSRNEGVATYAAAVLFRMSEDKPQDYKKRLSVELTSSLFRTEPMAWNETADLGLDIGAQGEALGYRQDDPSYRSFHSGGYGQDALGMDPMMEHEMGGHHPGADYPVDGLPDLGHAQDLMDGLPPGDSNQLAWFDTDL

Legend:
[1] = target: TCF4 (human (endogenous in Ls174T)) (UniProt Q9NQB0); experiment: co-IP; endogenous complexes from Ls174T CRC lysates in PLB buffer (1% TritonX-100, 2 mM EDTA, 1 mM DTT in PBS), overnight at 4°C with anti-TCF4, anti β-catenin, anti-Mllt10/Af10 or anti-DOT1L and protein G-Agarose; Western blot
[2] = target: DOT1L (human (endogenous in Ls174T)) (UniProt Q8TEK3); experiment: as above
[3] = target: T1, Mllt10/Af10 (mouse (endogenous in small intestinal crypts)) (UniProt O54826); experiment: co-IP; endogenous complexes from mouse crypt lysates in PLB buffer (1% TritonX-100, 2 mM EDTA, 1 mM DTT in PBS), overnight at 4°C with anti-TCF4, anti β-catenin or anti-Mllt10/Af10 and protein G-Agarose; Western blot
T1 sequence: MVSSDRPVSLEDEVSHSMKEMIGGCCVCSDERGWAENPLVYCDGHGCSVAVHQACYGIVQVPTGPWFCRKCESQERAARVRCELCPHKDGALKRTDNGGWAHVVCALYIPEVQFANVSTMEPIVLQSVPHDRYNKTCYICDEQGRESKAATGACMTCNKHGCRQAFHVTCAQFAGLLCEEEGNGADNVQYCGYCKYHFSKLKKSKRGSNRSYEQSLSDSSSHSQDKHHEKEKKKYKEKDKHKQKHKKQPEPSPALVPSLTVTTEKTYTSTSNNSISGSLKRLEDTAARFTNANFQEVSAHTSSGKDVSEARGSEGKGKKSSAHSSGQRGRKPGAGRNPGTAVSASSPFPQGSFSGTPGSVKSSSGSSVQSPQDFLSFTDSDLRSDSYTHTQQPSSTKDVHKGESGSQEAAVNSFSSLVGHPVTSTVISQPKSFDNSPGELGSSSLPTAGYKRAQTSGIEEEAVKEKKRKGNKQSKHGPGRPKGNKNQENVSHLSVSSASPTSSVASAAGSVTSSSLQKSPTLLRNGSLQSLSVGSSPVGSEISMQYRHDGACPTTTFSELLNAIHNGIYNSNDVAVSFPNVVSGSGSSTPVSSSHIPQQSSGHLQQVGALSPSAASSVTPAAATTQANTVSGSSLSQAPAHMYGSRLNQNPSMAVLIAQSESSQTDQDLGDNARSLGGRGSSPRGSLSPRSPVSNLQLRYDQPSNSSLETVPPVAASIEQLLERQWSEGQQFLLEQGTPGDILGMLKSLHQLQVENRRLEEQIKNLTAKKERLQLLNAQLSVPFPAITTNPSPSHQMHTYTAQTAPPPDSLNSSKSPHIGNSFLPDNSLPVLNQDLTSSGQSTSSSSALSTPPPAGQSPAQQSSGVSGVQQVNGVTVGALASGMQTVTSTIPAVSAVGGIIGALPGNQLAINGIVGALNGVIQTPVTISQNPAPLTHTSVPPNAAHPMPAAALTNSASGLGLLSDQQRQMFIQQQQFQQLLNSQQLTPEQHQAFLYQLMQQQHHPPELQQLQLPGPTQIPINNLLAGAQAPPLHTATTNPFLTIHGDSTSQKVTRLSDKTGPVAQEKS

[4] = target: Recombinant GST-fused β-catenin (UniProt P35222); experiment: pull-down; GST pull-down: recombinant GST fusion proteins as bait, in vitro transcribed and translated S35 labeled proteins as prey; only the target purified
[5] = target: Tcf4 (mouse (endogenous in small intestinal crypts)) (UniProt Q924A0); experiment: co-IP; endogenous complexes from mouse crypt lysates in PLB buffer (1% TritonX-100, 2 mM EDTA, 1 mM DTT in PBS), overnight at 4°C with anti-TCF4, anti β-catenin or anti-Mllt10/Af10 and protein G-Agarose; Western blot
[6] = target: β-catenin (mouse (endogenous in small intestinal crypts)) (UniProt Q02248); experiment: as above

binding [1]: binds
Molecule: DOT1L (from UniProt Q8TEK3 1-1537) (enzyme)

binding [2]: binds
Molecule: TCF4 (from UniProt Q9NQB0 1-619)

binding [3]: binds
Molecule: Tcf4 (from UniProt Q924A0 1-459)

binding [3]: binds
Molecule: β-catenin (from UniProt Q02248 1-781)

binding [2]: binds
B1: MLLT10/AF10 (protein, UniProt P55197 1-1068)
chain: MVSSDRPVSLEDEVSHSMKEMIGGCCVCSDERGWAENPLVYCDGHGCSVAVHQACYGIVQVPTGPWFCRKCESQERAARVRCELCPHKDGALKRTDNGGWAHVVCALYIPEVQFANVSTMEPIVLQSVPHDRYNKTCYICDEQGRESKAATGACMTCNKHGCRQAFHVTCAQFAGLLCEEEGNGADNVQYCGYCKYHFSKLKKSKRGSNRSYDQSLSDSSSHSQDKHHEKEKKKYKEKDKHKQKHKKQPEPSPALVPSLTVTTEKTYTSTSNNSISGSLKRLEDTTARFTNANFQEVSAHTSSGKDVSETRGSEGKGKKSSAHSSGQRGRKPGGGRNPGTTVSAASPFPQGSFSGTPGSVKSSSGSSVQSPQDFLSFTDSDLRNDSYSHSQQSSATKDVHKGESGSQEGGVNSFSTLIGLPSTSAVTSQPKSFENSPGDLGNSSLPTAGYKRAQTSGIEEETVKEKKRKGNKQSKHGPGRPKGNKNQENVSHLSVSSASPTSSVASAAGSITSSSLQKSPTLLRNGSLQSLSVGSSPVGSEISMQYRHDGACPTTTFSELLNAIHNGIYNSNDVAVSFPNVVSGSGSSTPVSSSHLPQQSSGHLQQVGALSPSAVSSAAPAVATTQANTLSGSSLSQAPSHMYGNRSNSSMAALIAQSENNQTDQDLGDNSRNLVGRGSSPRGSLSPRSPVSSLQIRYDQPGNSSLENLPPVAASIEQLLERQWSEGQQFLLEQGTPSDILGMLKSLHQLQVENRRLEEQIKNLTAKKERLQLLNAQLSVPFPTITANPSPSHQIHTFSAQTAPTTDSLNSSKSPHIGNSFLPDNSLPVLNQDLTSSGQSTSSSSALSTPPPAGQSPAQQGSGVSGVQQVNGVTVGALASGMQPVTSTIPAVSAVGGIIGALPGNQLAINGIVGALNGVMQTPVTMSQNPTPLTHTTVPPNATHPMPATLTNSASGLGLLSDQQRQILIHQQQFQQLLNSQQLTPEQHQAFLYQLMQHHHQQHHQPELQQLQIPGPTQIPINNLLAGTQAPPLHTATTNPFLTIHGDNASQKVARLSDKTGPVAQEKS

binding [4]: binds
B2: in vitro translated S35 labeled MLLT10 (protein, UniProt P55197 1-1068)
chain: B1 chain
modifications: S35 labeled

binding [5]: binds
binding [6]: binds
B3: Mllt10/Af10 (protein, UniProt O54826 1-1068)
chain: T1 sequence
